Test results from patent US20200405881A1, “CELL BASED METHODS AND COMPOSITIONS FOR THERAPEUTIC AGENT DELIVERY AND TREATMENTS USING SAME” (UNIVERSITY OF WASHINGTON, priority 2017, published 2020).
For at least one compound, name, drawing or mass did not settle the structure.

Tested on: macrophages
Assay: Free resiquimod and galunisertib testing, cytokines and phenotype (Example 9)
Type: cell-based, human
Settings: Resiquimod 1 ug/ml for 1 hour
Description: Methods: CD14+ monocytes were isolated from PBMCs and differentiated to macrophages in RPMI/10% FBS with 10 ng/mL GM-CSF or 25 ng/ml M-CSF for 6 days. Macrophages were incubated with Resiquimod (1 ug/ml) and/or Galunisertib (56 nM) for 1 hour, then stimulated with 1 ug LPS/100U/ml IFNg to determine impact on viability using flow cytometry of cells and pro-inflammatory responsiveness using a 30plex for human cytokines on cell supernatant 24 hours after stimulation. Expression of bFGF, IL-1B, GCSF, IL10, 1L^13, IL6, IL12, Rantes, MIP1a, GMCSF, MIP1B, MCP1, IL15, EGF, IL5, HGF, VEGF, IFNg, IFNa, IL1RA, TNFa, IL7, IP10, IL2R, MIG, and IL8 was measured in the following treatment groups: M1 control, M1 resiquimod, M1 galunisertib, M1 resiquimod+galunisertib, M1 LPS/IFNg+resiquimod, M1 LPS/IFNg+galunisertib, M1 LPS/IFNg+resiquimod, +galunisertib, M2 control, M2 resiquimod, M2 galunisertib, M2 resiquimod+galunisertib, M2 LPS/IFNg+resiquimod, M2 LPS/IFNg+galunisertib, and M LPS/IFNg+resiquimod, +galunisertib (data not shown). […]

CCOCc1nc2c(N)nc3ccccc3c2n1CC(C)(C)O [resiquimod]
cell phenotype: cell phenotype mimics activated M1 macrophages | pro-inflammatory cytokine production: induced significant pro-inflammatory cytokine production
